Data: the supplement of paper PMC8007513
The other results are listed elsewhere or left out. Many values rest on one well or one pass, so single values are uncertain.

These compounds were tested on Saccharomyces cerevisiae BY4743 (assay: growth (OD600) relative to untreated control; higher = less growth inhibition). Details: compound concentration: 133 uM; 20 h.
Description: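 NMCCC compounds (133 uM, no IPBC) tested alone against Saccharomyces cerevisiae BY4743 in YPD, 96-well plates, starting OD600 ~0.1. Growth was read as OD600 at 20 h and expressed as % of the untreated control. Single pass.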
`COc1ccc(-c2noc(N(C)CC(=O)Nc3ccc(Br)cc3C)n2)cc1` gave a growth of 88.1%.
In the case of `CCOC(=O)Nc1cccc(C(=O)NCc2ccc(N3CCCC3=O)cc2)c1`, the growth is reported as 107%.
`Cc1csc(SCC(=O)NC(C)C(c2ccccc2)N2CCOCC2)n1` (stereo unspecified) gave a growth of 90.5%.
`CC(=O)C1=C(C)OC(=C1)CCC(=O)OCC/2=C/C(=O)N/3\C=C(Cl)/C=C\C3=N2` gave a growth of 106%.
`CCC(C)NC(=O)CCc1c(C)nc2nc(-c3cc(OC)cc(OC)c3)nn2c1C` (stereo unspecified) was tested, and the growth was 112%.
`COC(=O)CN\1C(=O)C2=CC=CC=C2\N=C1SC(CC3=CC=C(C)C=C3)C#N` (stereo unspecified) gave a growth of 99%.
`CCc1nn2c(Cc3c(Cl)cccc3Cl)nnc2s1` gave a growth of 103%.
Compound `CSc1nc(C)c(CCC(=O)OCc2cn3cc(Cl)ccc3n2)c(C)n1` has a growth of 106%.
For `COCCN1\N=C(/C=C\C1=O)C(=O)N(CC2=C(F)C=CC=C2Cl)C3CC3`, the growth was 95.4%.
Compound `Cc1cccc(Cl)c1NS(=O)(=O)c1ccc(C)c(N2CCCC2=O)c1C` has a growth of 116%.
`O=C(Cc1csc(NC(=O)NC2CCCC2)n1)Nc1ccc(Cl)c(Cl)c1` showed a growth of 97.3%.
In the case of `Cc1ccc2cc(CN(CC(C)C)C(=O)c3ccco3)c(O)nc2c1`, the growth is reported as 109%.
For `Cl\C1=C(\CCCC1)C(=O)NC2=CC=C(C=C2)N3CCOCC3`, the growth was 105%.
Compound `O=C(COc1ncnc2ccc(Br)cc12)NCC1CCCO1` (stereo unspecified) has a growth of 93.2%.
`CC(C)CCC(C)NC(=O)C1=CC2=C(C=C1Cl)N\3CCCCCC3=N/[S]2(=O)=O` (stereo unspecified) showed a growth of 114%.
`CCOc1cc(C)nn1-c1ccccc1` gave a growth of 99%.
